Results as given in paper PMC9830214.

Molecular target: HA-TMEM63B-QS (mouse)
Experiment: co-IP; HEK293T cells co-expressing HA-TMEM63B-QS and FLAG-TMEM63B-QL or -QS; lysate (RIPA buffer), anti-HA antibody at 4 °C overnight, Protein G agarose beads, eluted with 0.1 M glycine pH 2.5; blot for FLAG

- binding: binds
B1: FLAG-TMEM63B-QL (protein, UniProt Q3TWI9 1-832)
chain: MLPFLLATLGTAALNSSNPKDYCYSARIRSTVLQGLPFGGVPTVLALDFMCFLALLFLFSILRKVAWDYGRLALVTDADRLRRQERERVEQEYVASAMHGDSHDRYERLTSVSSSVDFDQRDNGFCSWLTAIFRIKDDEIRDKCGGDAVHYLSFQRHIIGLLVVVGVLSVGIVLPVNFSGDLLENNAYSFGRTTIANLKSGNNLLWLHTSFAFLYLLLTVYSMRRHTSKMRYKEDDLVKRTLFINGISKYAESEKIKKHFEEAYPNCTVLEARPCYNVARLMFLDAERKKAERGKLYFTNLQSKENVPAMINPKPCGHLCCCVVRGCEQVEAIEYYTKLEQRLKEDYRREKEKVNEKPLGMAFVTFHNETITAIILKDFNVCKCQGCTCRGEPRASSCSEALHISNWTVTYAPDPQNIYWEHLSIRGFIWWLRCLVINVVLFILLFFLTTPAIIITTMDKFNVTKPVEYLNNPIITQFFPTLLLWCFSALLPTIVYYSAFFEAHWTRSGENRTTMHKCYTFLIFMVLLLPSLGLSSLDLFFRWLFDKKFLAEAAIRFECVFLPDNGAFFVNYVIASAFIGNAMDLLRIPGLLMYMIRLCLARSAAERRNVKRHQAYEFQFGAAYAWMMCVFTVVMTYSITCPIIVPFGLMYMLLKHLVDRYNLYYAYLPAKLDKKIHSGAVNQVVAAPILCLFWLLFFSTMRTGFLAPTSMFTFVVLVITIVICLCHVCFGHFKYLSAHNYKIEHTETDAVSSRSNGRPPTAGAVPKSAKYIAQVLQDSEGDGDGDGAPGSSGDEPPSSSSQDEELLMPPDGLTDTDFQSCEDSLIENEIHQ

Results are given in words; binding and its absence hold for the method and conditions named. In cells and extracts the contact can be indirect. Binding can be weak; no strength is given. Tags and fused reporters may be left off the sequences shown.
